The target in the experiment is Estrogen receptor (ER). The experiment is described as follows: GST pull-down on glutathione-Sepharose, 35S-labelled ER.

No constants are given. Whether binding was seen depends on the method and setting. In cells and extracts the contact can be indirect. Binding calls can cover weak binding; strength is not graded here. Where a sequence is shown, tags or fusion partners need not be part of it.

For one molecule, binding results are on record in patent US20080044436A1, “Method for Screening and Compositions for Treating Cancers” (priority 2004, published 2008).

B1: GST-TReP-132 wt fusion protein (protein, not shown: a dimerising Fc or GST; large carriers; small tags and cut ends)
chain: MGDQQLYKTNHVAHGSENLFYQQPPLGVHSGLNHNYGNAVTGGGMDAPQASPISPHFPQDTRDGLGLPVGSKNLGQMDTSRQGGWGSHAGPGNHVQLRGNLANSNMMWGAPAQAEPTDGYQYTYSQASEIRTQKLTSGVLHKLDSFTQVFANQNLRIQVNNMAQVLHTQSAVMDGAPDSALRQLLSQKPMEPPAPAIPSRYQQVPQQPHPGFTGGLSKPALQVGQHPTQGHLYYDYQQPLAQVPVQGGQPLQAPQMLSQHMQQMQQHQYYPPQQQQQAGQQRISMQEIQTQPQQIRPSQPQPPPQQQQPQQLQLQQRQGSMQIPQYYQPQPMMQHLQEQQQQQMHLQPPSYHRDPHQYTPEQAHTVQLIPLGSMSQYYYQEPQQPYSHPLYQQSHLSQHQQREDSQLKTYSSDRQAQAMLSSHGDLGPPDTGMGDPASSDLTRVSSTLPHRPLLSPSGIHLNNMGPQHQQLSPSAMWPQMHLPDGRAQPGSPESSGQPKGAFGEQFDAKNKLTCSICLKEFKNLPALNGHMRSHGGMRASPNLKQEEGEKVLPPQPQPPLPPPPPPPPPPQLPPEAESLTPMVMPVSVPVKLLPPKPSSQGFTNSTVAAPSARDKPASSMSDDEMPVLEIPRKHQPSVPKAEEPLKTVQEKKKFRHRPEPLFIPPPPSYNPNPAASYSGATLYQSQLRSPRVLGDHLLLDPTHELPPYTPPPMLSPVRQGSGLFSNVLISGHGPGAHPQLPLTPLTPTPRVLLCRSNSIDGSNVTVTPGPGEQTVDVEPRINIGLRFQAEIPELQDISALAQDTHKATLVWKPWPELENHDLQQRVENLLNLCCSSALPGGGTNSEFALHSLFEAKGDVMVALEMLLLRKPVRLKCHPLANYHYAGSDKWTSLERKLFNKALATYSKDFIFVQKMVKSKTVAQCVEYYYTWKKIMRLGRKHRTRLAEIIDDCVTSEEEEELEEEEEEDPEEDRKSTKEEESEVPKSPEPPPVPVLAPTEGPPLQALGQPSGSFICEMPNCGAVFSSRQALNGHARIHGGTNQVTKARGAIPSGKQKPGGTQSGYCSVKSSPSHSTTSGETDPTTIFPCKECGKVFFKIKSRNAHMKTHRQQEEQQRQKAQKAAFAAEMAATIERTTGPVGAPGLLPLDQLSLIKPIKDVDILDDDVVQQLGGVMEEAEVVDTDLLLDDQDSVLLQGDAEL
modifications: N-terminal GST fusion (pGEX-2TK) is left out of the letters
As for B1, the binding entry is listed as “binds”.
